Measurements reported in the M2OR odorant receptor database.
The entries are a selection whose mix differs from that of the whole data set. The calls were merged from several studies; some rest on single wells. The list shows a part of the results.

Sequences of proteins named here, by UniProt entry; tags and fusion partners are left off. A line that says so, or that is headed by a name, gives the form on record, which may keep a tag or linker.
UniProt Q8VG26, as listed by the source: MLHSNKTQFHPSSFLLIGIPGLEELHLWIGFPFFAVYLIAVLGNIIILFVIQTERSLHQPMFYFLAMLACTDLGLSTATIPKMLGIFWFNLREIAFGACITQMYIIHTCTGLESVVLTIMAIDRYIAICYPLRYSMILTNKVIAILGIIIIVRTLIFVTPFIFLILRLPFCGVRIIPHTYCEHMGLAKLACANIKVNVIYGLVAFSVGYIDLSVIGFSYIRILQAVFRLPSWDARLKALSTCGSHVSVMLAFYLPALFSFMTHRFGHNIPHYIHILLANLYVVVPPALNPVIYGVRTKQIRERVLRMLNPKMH
UniProt Q8VG28, as listed by the source: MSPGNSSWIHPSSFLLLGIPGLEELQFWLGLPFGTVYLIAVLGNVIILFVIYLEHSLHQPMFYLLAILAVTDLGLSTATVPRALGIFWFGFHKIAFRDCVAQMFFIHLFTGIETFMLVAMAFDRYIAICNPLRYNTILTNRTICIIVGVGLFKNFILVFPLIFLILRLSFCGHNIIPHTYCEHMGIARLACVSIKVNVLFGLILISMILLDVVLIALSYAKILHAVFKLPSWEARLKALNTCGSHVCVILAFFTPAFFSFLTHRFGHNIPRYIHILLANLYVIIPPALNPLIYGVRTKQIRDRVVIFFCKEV

Tests used:
Details in all cases: stereoisomer not certain
UniProt Q8VFM8 = molecular target: T1, UniProt Q8VFM8
T1 sequence (whole entry): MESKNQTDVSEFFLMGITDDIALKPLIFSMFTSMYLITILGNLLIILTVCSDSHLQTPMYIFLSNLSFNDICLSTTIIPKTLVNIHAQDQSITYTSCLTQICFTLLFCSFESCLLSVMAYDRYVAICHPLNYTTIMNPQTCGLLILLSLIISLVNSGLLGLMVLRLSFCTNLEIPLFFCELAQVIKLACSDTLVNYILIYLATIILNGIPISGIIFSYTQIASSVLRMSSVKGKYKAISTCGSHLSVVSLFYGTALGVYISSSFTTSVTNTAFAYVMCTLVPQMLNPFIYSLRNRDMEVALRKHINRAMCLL
How it was run: (§1)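 Values were gathered from published papers (main text and supplementary material), with extra details requested from the original authors when needed, and checked for typos and inconsistencies. Each receptor–molecule pair is called responsive (active) if the original authors judged the measured signal statistically different from baseline, and non-responsive (inactive) otherwise. Assay methods varied by source, often transient mammalian cell-line luciferase assays. Recorded details include cell line, G-protein, co-transfected protein and tags.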

UniProt Q8VFP5 = molecular target: T2, UniProt Q8VFP5
T2 sequence (whole entry): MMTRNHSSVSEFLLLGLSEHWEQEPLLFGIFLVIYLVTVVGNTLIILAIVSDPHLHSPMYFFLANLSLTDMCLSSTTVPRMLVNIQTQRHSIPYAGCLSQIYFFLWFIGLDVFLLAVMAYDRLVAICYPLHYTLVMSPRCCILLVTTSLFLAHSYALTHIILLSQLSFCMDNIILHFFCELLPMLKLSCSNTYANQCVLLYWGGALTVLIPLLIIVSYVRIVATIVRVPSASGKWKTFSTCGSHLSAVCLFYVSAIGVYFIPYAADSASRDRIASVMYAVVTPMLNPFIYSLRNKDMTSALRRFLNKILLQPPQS
How it was run: as §1

UniProt Q8VG01 = molecular target: T3, UniProt Q8VG01
T3 sequence (whole entry): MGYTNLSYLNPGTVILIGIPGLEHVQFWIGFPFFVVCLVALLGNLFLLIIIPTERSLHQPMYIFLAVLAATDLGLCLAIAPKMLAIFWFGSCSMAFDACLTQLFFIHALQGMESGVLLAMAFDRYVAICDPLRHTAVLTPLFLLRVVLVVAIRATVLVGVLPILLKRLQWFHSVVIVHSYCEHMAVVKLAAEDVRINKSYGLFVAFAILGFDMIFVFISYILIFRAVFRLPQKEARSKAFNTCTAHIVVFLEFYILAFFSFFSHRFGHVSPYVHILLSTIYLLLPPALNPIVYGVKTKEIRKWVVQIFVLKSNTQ
How it was run: as §1

UniProt Q8VG27 = molecular target: T4, UniProt Q8VG27
T4 sequence (whole entry): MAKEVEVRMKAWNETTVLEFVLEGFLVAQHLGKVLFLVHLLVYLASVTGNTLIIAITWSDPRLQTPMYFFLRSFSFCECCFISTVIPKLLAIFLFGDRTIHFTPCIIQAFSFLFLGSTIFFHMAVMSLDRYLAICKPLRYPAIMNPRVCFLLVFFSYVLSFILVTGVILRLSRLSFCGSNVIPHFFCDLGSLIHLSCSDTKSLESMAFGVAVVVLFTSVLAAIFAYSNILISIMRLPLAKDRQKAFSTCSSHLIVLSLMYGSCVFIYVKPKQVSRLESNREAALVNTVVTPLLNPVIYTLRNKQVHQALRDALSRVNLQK
How it was run: as §1

UniProt Q8VG53 = molecular target: T5, UniProt Q8VG53
T5 sequence (whole entry): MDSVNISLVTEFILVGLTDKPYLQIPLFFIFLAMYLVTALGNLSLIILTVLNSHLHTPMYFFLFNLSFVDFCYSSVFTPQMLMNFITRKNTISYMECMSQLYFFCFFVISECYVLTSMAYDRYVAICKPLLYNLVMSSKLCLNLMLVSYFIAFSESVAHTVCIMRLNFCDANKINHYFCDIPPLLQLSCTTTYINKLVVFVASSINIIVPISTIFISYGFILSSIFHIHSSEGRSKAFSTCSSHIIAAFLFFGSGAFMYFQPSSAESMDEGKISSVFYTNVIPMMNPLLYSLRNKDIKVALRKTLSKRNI
How it was run: as §1

UniProt Q8VG64 = molecular target: T6, UniProt Q8VG64
T6 sequence (whole entry): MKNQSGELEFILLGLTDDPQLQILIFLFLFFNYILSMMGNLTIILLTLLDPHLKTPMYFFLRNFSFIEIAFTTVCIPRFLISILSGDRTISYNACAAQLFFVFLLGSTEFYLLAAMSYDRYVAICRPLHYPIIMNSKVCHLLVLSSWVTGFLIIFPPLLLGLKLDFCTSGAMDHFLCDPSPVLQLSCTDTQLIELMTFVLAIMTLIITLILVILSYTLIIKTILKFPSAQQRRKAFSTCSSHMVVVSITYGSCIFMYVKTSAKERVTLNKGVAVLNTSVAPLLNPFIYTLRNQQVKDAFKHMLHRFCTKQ
How it was run: as §1

UniProt Q8VGB9 = molecular target: T7, UniProt Q8VGB9
T7 sequence (whole entry): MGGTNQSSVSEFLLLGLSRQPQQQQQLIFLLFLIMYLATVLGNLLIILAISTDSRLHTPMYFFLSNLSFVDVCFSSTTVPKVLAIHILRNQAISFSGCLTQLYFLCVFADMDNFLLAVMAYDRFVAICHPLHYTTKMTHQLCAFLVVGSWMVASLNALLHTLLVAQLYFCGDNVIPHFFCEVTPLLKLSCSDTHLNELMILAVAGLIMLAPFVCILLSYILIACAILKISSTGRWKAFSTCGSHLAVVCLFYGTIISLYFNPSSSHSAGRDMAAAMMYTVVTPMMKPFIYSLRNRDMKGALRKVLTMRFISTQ
How it was run: as §1

UniProt Q8VGC6 = molecular target: T8, UniProt Q8VGC6
T8 sequence (whole entry): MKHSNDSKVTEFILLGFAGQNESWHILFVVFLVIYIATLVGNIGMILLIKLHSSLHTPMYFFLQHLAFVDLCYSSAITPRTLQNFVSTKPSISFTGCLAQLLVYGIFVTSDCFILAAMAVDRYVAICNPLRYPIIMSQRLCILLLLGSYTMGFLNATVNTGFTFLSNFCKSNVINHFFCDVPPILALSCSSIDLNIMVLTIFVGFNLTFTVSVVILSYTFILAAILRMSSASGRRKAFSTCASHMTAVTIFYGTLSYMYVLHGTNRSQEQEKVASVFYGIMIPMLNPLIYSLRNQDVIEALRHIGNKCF
How it was run: as §1

UniProt Q8VFG6 = molecular target: T9, UniProt Q8VFG6
T9 sequence (whole entry): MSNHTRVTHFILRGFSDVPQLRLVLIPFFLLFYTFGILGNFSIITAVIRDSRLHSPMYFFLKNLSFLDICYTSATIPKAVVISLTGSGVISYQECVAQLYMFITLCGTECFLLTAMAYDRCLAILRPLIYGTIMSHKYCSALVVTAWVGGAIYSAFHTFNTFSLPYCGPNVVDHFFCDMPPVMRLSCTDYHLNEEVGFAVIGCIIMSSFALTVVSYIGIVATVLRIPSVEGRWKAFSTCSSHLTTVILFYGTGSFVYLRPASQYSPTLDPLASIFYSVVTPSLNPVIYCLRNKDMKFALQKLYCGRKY
How it was run: as §1

UniProt Q8VFZ6 = molecular target: T10, UniProt Q8VFZ6
T10 sequence (whole entry): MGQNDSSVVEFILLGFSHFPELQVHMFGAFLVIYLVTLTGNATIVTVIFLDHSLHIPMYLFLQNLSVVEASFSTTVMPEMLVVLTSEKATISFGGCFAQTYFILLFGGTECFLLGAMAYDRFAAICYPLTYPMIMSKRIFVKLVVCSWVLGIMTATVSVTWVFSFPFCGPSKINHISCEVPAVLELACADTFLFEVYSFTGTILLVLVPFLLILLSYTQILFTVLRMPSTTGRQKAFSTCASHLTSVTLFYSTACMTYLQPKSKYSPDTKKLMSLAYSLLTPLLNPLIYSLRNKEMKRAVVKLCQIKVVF
How it was run: as §1

UniProt Q8VG22 = molecular target: T11, UniProt Q8VG22
T11 sequence (whole entry): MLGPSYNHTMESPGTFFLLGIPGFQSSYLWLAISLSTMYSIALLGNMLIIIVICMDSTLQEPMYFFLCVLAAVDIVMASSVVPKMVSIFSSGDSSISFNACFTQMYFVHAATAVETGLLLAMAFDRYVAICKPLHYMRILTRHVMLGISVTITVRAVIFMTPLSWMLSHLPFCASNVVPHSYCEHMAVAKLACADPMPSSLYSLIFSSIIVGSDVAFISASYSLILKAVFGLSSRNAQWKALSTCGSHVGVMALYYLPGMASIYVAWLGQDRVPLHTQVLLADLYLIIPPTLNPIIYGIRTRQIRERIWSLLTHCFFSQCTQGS
How it was run: as §1

UniProt Q8VG26 = molecular target: UniProt Q8VG26
How it was run: as §1

UniProt Q8VG28 = molecular target: UniProt Q8VG28
How it was run: as §1

UniProt Q8VG49 = molecular target: T12, UniProt Q8VG49
T12 sequence (whole entry): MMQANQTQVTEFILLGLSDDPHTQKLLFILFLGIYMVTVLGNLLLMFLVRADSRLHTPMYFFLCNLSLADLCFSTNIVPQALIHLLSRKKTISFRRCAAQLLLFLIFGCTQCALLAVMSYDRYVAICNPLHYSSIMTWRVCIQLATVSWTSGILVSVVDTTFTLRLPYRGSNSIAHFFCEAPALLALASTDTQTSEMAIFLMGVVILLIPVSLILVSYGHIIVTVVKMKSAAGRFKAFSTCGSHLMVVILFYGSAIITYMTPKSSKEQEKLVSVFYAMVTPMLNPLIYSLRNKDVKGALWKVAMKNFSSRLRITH
How it was run: as §1

UniProt Q8VG77 = molecular target: T13, UniProt Q8VG77
T13 sequence (whole entry): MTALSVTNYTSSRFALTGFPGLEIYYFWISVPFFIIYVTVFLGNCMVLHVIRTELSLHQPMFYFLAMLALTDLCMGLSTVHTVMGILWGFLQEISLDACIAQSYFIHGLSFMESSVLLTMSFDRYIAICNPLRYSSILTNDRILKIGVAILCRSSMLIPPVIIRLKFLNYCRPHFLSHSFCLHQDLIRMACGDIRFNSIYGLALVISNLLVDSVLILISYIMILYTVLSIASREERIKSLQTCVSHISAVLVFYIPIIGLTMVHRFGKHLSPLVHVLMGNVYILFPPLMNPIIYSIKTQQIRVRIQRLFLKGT
How it was run: as §1

UniProt Q8VG96 = molecular target: T14, UniProt Q8VG96
T14 sequence (whole entry): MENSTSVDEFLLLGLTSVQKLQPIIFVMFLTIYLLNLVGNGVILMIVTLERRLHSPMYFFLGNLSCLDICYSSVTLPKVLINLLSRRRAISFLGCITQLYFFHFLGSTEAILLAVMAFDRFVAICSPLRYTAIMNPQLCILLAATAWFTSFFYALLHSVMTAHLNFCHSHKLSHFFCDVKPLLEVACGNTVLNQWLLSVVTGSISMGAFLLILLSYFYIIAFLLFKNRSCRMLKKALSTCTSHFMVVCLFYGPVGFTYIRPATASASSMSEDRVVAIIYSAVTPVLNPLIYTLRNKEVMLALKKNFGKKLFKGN
How it was run: as §1

UniProt Q8VGD7 = molecular target: T15, UniProt Q8VGD7
T15 sequence (whole entry): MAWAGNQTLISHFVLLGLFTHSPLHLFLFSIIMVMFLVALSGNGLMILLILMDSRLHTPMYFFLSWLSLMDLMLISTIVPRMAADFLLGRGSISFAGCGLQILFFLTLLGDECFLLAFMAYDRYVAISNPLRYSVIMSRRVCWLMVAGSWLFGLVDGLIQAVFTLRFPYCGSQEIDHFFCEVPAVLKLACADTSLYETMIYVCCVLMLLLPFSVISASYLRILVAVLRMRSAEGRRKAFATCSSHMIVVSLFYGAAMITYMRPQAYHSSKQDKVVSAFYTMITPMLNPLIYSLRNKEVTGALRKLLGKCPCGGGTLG
How it was run: as §1

Measured: odorant receptor agonist call

CCCCO
inactive: UniProt Q8VFM8 | UniProt Q8VFP5 | UniProt Q8VG01 | UniProt Q8VG27 | UniProt Q8VG53 | UniProt Q8VG64 | UniProt Q8VGB9 | UniProt Q8VGC6

CC12CCC(CC1)C(C)(C)O2
inactive: UniProt Q8VFM8 | UniProt Q8VFP5 | UniProt Q8VG01 | UniProt Q8VG27 | UniProt Q8VG53 | UniProt Q8VG64 | UniProt Q8VGB9 | UniProt Q8VGC6

CCCCCCC=O
inactive: UniProt Q8VFG6 | UniProt Q8VFM8 | UniProt Q8VFP5 | UniProt Q8VFZ6 | UniProt Q8VG01 | UniProt Q8VG22 | UniProt Q8VG26 | UniProt Q8VG27 | UniProt Q8VG28 | UniProt Q8VG49 | UniProt Q8VG53 | UniProt Q8VG64 | UniProt Q8VG77 | UniProt Q8VG96 | UniProt Q8VGB9 | UniProt Q8VGC6 | UniProt Q8VGD7

CC(=O)C(C)=O
inactive: UniProt Q8VFM8 | UniProt Q8VFP5 | UniProt Q8VG01 | UniProt Q8VG27 | UniProt Q8VG53 | UniProt Q8VG64 | UniProt Q8VGB9 | UniProt Q8VGC6
